Measured values from publication PMC9089883.
These are yes or no findings as the source states them, for the method shown. Binding seen in cells or lysates may run through a third protein. A result given as binding can be weak or reduced; the word gives no strength.

By UniProt entry, the sequences of proteins in these tests, tags left out.
UniProt P51775: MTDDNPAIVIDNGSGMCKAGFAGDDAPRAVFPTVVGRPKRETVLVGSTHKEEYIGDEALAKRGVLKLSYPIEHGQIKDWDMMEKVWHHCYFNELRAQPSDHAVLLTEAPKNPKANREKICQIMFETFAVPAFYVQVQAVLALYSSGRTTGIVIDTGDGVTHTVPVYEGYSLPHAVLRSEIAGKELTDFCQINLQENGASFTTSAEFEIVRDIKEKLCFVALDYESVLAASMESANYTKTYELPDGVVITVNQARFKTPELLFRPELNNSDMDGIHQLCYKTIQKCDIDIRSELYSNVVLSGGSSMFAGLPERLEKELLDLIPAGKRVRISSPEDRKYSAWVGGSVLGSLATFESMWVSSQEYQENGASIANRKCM

Target: Flangin-3HA (Flangin endogenously tagged with a triple hemagglutinin epitope) (Giardia lamblia (strain WB Clone 6, ATCC 50803)) (UniProt A8BCS1)
Assay: co-IP

With “Giardia lamblia actin (GlActin) (from UniProt P51775 1-375)” as the substance, how does the binding read?
The binding was “binds”.
